From patent publication US20090170902A1, “COMPOUNDS WHICH POTENTIATE GLUTAMATE RECEPTOR AND USES THEREOF IN MEDICINE” (priority 2006, published 2009)
Some of these results come from one statement about several compounds together.

Chains of the proteins cited; added tags and fusions are not shown. Residues count along the entry.
UniProt P42262, 25-883 isoform P42262-2 limits assumed: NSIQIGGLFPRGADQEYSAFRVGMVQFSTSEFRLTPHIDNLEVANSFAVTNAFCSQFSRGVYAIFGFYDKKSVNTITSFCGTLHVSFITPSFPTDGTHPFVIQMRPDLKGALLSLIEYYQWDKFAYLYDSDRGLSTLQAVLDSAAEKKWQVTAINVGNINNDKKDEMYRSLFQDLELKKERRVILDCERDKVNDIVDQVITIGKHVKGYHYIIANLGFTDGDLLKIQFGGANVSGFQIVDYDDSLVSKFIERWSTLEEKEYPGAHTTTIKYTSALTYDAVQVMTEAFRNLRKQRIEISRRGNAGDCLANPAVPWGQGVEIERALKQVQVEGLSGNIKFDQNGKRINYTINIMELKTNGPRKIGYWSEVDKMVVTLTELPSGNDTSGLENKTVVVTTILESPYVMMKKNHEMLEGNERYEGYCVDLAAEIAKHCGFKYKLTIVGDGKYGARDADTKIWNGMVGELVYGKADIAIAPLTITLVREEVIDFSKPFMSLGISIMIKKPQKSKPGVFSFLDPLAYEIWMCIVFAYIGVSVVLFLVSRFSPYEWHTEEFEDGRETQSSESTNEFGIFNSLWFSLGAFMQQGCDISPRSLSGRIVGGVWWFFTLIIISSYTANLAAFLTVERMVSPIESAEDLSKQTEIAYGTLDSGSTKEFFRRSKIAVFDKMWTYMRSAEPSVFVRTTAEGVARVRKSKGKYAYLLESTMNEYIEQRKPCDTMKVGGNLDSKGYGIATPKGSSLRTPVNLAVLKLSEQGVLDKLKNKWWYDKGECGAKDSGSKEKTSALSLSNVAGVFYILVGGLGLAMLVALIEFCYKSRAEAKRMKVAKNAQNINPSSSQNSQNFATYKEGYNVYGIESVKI

Target: T1, human GluR2 flip (unedited) AMPA receptor subunit (Homo sapiens, UniProt P42262)
T1 construct: expressed in transfected cells
Test: Calcium influx fluorescence assay (FLUO4, FLIPR)
Format: cell-based
Conditions: HEK 293 cells expressing human GluR2 flip (unedited); 100 μM glutamate final; peak fluorescence
Procedure: 384 well plates are prepared containing confluent monolayer of HEK 293 cells either stably expressing or transiently transfected with human GluR2 flip (unedited) AMPA receptor subunit. These cells form functional homotetrameric AMPA receptors. The tissue culture medium in the wells are discarded and the wells are each washed three times with standard buffer (80 μL) for the stable cell line (145 mM NaCl, 5 mM KCl, 1 mM MgCl2, 2 mM CaCl2, 20 mM N-[2-hydroxyethyl]-piperazine-N-[2-ethanesulfonic acid (HEPES), 5.5 mM glucose, pH 7.3) or with a Na-free buffer for the transient transfected cells (145 mM N-methyl-glucamine instead of NaCl). The plates are then incubated for 60 minutes in the dark with 2 μM FLUO4-AM dye (20 μL) (Molecular Probes, Netherlands) at room temperature to allow cell uptake of the FLUO-4AM, which is then converted to FLUO-4 by intracellular esterases which is unable to leave the cell. After incubation each well is washed three times with buffer (80 μL) (30 μL of buffer remained in each well after washing).
Compounds of the invention (or reference compounds such as cyclothiazide) are dissolved in dimethylsulfoxide (DMSO) at a stock concentration of 10 mM. These solutions are further diluted with DMSO using a Biomek FX (Beckman Coulter) in a 384 compound plate. Each dilution (1 μL) is transferred to another compound plate and buffer (50 μL) is added. An agonist stimulus (glutamate) plate is prepared by dissolving sodium glutamate in water to give a concentration of 100 mM. This solution is diluted with buffer to give a final concentration of 500 μM and dispensed into another 384-well plate (50 μL/well) using a Multidrop (Thermolabsystems).
The cell plate is then transferred into a fluorescence imaging plate based reader [such as the FLIPR384 (Molecular Devices)]. A baseline fluorescence reading is taken over a 10 to 240 second period, and then 10 μL from each plate containing a compound of the invention made up in standard buffer solution (in a concentration range from […]) is added (to give a final concentration in the range 30 μM to 3 pM). The fluorescence is read over 5 minute period. 500 μM glutamate solution (10 μL) is added (to give a final concentration of 100 μM). The fluorescence is then read over a 4 minute period. The activities of the compounds of the invention and reference compounds are determined by measuring peak fluorescence after the last addition. The activity is also expressed relative to the fluorescence increase induced by cyclothiazide at their maximum response (i.e. greater than 30 μM).
The assay described above is believed to have an effective limit of detection of a pEC50 in the region of 3.5-4.0 due to the limitations of compound solubility. The pEC50 result is generally considered to be accurate +/−0.3.

pEC50, ≥ 4.0:
CC(C)S(=O)(=O)N[C@@H]1CCO[C@@H]1c1ccc(-c2cccs2)cc1 (relative stereo) [Example 9, N-{cis-2-[4-(2-thienyl)phenyl]tetrahydro-3-furanyl}-2-propanesulfonamide]
CC(C)S(=O)(=O)N[C@@H]1CCO[C@@H]1c1ccc(-c2ccc(F)nc2)cc1 (relative stereo) [Example 1, N-{cis-2-[4-(6-fluoro-3-pyridinyl)phenyl]tetrahydro-3-furanyl}-2-propanesulfonamide]
Cc1ccc(-c2ccc([C@H]3OCC[C@H]3NS(=O)(=O)C(C)C)cc2)cn1 (relative stereo) [Example 2, N-{cis-2-[4-(6-methyl-3-pyridinyl)phenyl]tetrahydro-3-furanyl}-2-propanesulfonamide]
CC(C)S(=O)(=O)N[C@@H]1CCO[C@@H]1c1ccc(-c2ccc(F)cc2)cc1 (relative stereo) [Example 6, N-[cis-2-(4′-fluoro-4-biphenylyl)tetrahydro-3-furanyl]-2-propanesulfonamide]
CC(C)S(=O)(=O)N[C@@H]1CCO[C@@H]1c1ccc(-c2cncc(F)c2)cc1 (relative stereo) [Example 4, N-{cis-2-[4-(5-fluoro-3-pyridinyl)phenyl]tetrahydro-3-furanyl}-2-propanesulfonamide]
CC(C)S(=O)(=O)N[C@@H]1CCO[C@@H]1c1ccc(-c2ccc(C#N)cc2)cc1 (relative stereo) [Example 7, N-[cis-2-(4′-cyano-4-biphenylyl)tetrahydro-3-furanyl]-2-propanesulfonamide]
CC(C)S(=O)(=O)N[C@@H]1CCO[C@@H]1c1ccc(-c2ccc(F)cn2)cc1 (relative stereo) [Example 3, N-{cis-2-[4-(5-fluoro-2-pyridinyl)phenyl]tetrahydro-3-furanyl}-2-propanesulfonamide]
Cc1cncc(-c2ccc([C@H]3OCC[C@H]3NS(=O)(=O)C(C)C)cc2)c1 (relative stereo) [Example 5, N-{cis-2-[4-(5-methyl-3-pyridinyl)phenyl]tetrahydro-3-furanyl}-2-propanesulfonamide]
CC(=O)c1cccc(-c2ccc([C@H]3OCC[C@H]3NS(=O)(=O)C(C)C)cc2)c1 (relative stereo) [Example 8, N-[cis-2-(3′-acetyl-4-biphenylyl)tetrahydro-3-furanyl]-2-propanesulfonamide]
